The results in this text go back to doi:10.1101/2025.06.03.657256 (bioRxiv, 2025).

One assay concerns the target 1mer[755:] (human) (UniProt Q96Q06). The assay is described as follows: thioflavin T.
A further assay has as its target 1mer[656:] (human) (UniProt Q96Q06). The assay can be described thus: thioflavin T.
The target in the next assay is MBP-2x1mer[260:] (human) (UniProt Q96Q06). The assay can be described thus: negative-stain EM of fibrils.
The next assay deals with MBP-3x1mer[260:] (human) (UniProt Q96Q06). The assay can be described thus: negative-stain EM of fibrils.
In assay [1] the target is MBP-4x1mer[260:] (human) (UniProt Q96Q06). The assay is described as follows: negative-stain EM of fibrils.
Assay [2] shares this target. The assay is described as follows: cryo-EM of fibrils.
Assay [3] shares this target. The assay can be described thus: thioflavin T.

Results are given in words; binding and its absence hold for the method and conditions named. Some binding calls cover weakened binding; strength is not graded here. For some of these results: Where a sequence is shown, tags or fusion partners need not be part of it.

For TKSVLTGTKDAVSTGLTGAVKLAKGTVQTGMDT (peptide, UniProt Q96Q06 755-787) [1mer[755:]], the binding entry with 1mer[755:] (human) is on record as “no binding (tested: 1 mg/ml)”.
Consider TQNIATGTKNTFGSGVTSAVNVAKGAAQTGVDT (peptide, UniProt Q96Q06 656-688) [1mer[656:]], for which the binding entry with 1mer[656:] (human) is recorded as “binds”.

B1: MBP-2x1mer[260:] (domain or fragment, UniProt Q96Q06 260-292; Q96Q06 260-292)
chain: SKTVLTGTKDTVCSGVTGAMNVAKGTIQTGVDTSKTVLTGTKDTVCSGVTGAMNVAKGTIQTGVDT
As to B1, the binding result with MBP-2x1mer[260:] (human) is “no binding”.

B2: MBP-3x1mer[260:] (domain or fragment, UniProt Q96Q06 260-292; Q96Q06 260-292; Q96Q06 260-292)
chain: SKTVLTGTKDTVCSGVTGAMNVAKGTIQTGVDTSKTVLTGTKDTVCSGVTGAMNVAKGTIQTGVDTSKTVLTGTKDTVCSGVTGAMNVAKGTIQTGVDT
B2: the binding result with MBP-3x1mer[260:] (human) is recorded as “no binding”.

B3: 4x1mer[260:] released from MBP-4x1mer[260:] by TEV protease (domain or fragment, human, UniProt Q96Q06 260-292, looked up)
chain: SKTVLTGTKDTVCSGVTGAMNVAKGTIQTGVDTSKTVLTGTKDTVCSGVTGAMNVAKGTIQTGVDTSKTVLTGTKDTVCSGVTGAMNVAKGTIQTGVDTSKTVLTGTKDTVCSGVTGAMNVAKGTIQTGVDT
With B3, the binding result in the assay with MBP-4x1mer[260:] (human) [1], with MBP-4x1mer[260:] (human) [2] and in the assay with MBP-4x1mer[260:] (human) [3] was “binds” in each case.
